Reference: PubChem BioAssay AID504793 (Drosophila RNAi Screening Center, 2011)

Test: 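Whole-genome screen for parts of the DNA damage checkpoint at G2/M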 (primary screen)
System: Drosophila S2R+ cells
Reagents: long dsRNA against Drosophila genes, about 0.25 µg dsRNA per well
Duration: 4 days of dsRNA, then 4 hours of drug before read-out
Challenge: doxorubicin 0.5 µM for 4 hours to cause double-strand breaks, in cells also given a low, harmless dose of dsRNA against nbs to sensitise the assay
Measurement: 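Mitotic index as the number of phospho-histone H3-positive cells in each well following doxorubicin, given as raw counts without normalisation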
Scale: mitotic cells: higher = more cells in mitosis, weaker G2 arrest
Rule for the call: 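Genes are called active only when high mitotic counts were reproduced with independent dsRNAs and mitosis was checked for delay without damage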
Calls: active = confirmed in follow-up tests; inactive = not confirmed
The deposit covers about 23,000 reagents; shown is an unselected part of those with a known target gene and a result. Of all reagents, 62 (0.27%) are marked active. 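Calls come from follow-up tests whose scores are not deposited, so confirmed genes may have low counts here; counts are not normalised per plate.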 The raw values are shown without normalisation. A number with no mark means an inactive call. Reagents against one gene are numbered here.

Against CG11655, the values are mitotic cells, replicate 1 = 11.
Knock-down of Ugt303B1 resulted in: mitotic cells, replicate 1 = 6.
For CG2200, the entry reads mitotic cells, replicate 1 = 7.
Silencing of dan #1 gave: mitotic cells, replicate 1 = 7.
After knock-down of dan #2, the screen gave mitotic cells, replicate 1 = 6.
CG10914 showed mitotic cells, replicate 1 = 9.
CG43325 gave mitotic cells, replicate 1 = 6.

2 consecutive records already listed, for reference:
CG11655 — mitotic cells, replicate 1 = 11
Ugt303B1 — mitotic cells, replicate 1 = 6

Further records:
After knock-down of CG4036, the record shows mitotic cells, replicate 1 = 4.
With knock-down of S-Lap4 #1, the record shows mitotic cells, replicate 1 = 5.
For S-Lap4 #2 the deposit lists mitotic cells, replicate 1 = 9.
AttA #1 showed mitotic cells, replicate 1 = 5.
AttA #2 scored mitotic cells, replicate 1 = 6.
Silencing of CG1138 came out at: mitotic cells, replicate 1 = 3.
With knock-down of TfAP-2, the record shows mitotic cells, replicate 1 = 8.
